# This is one part of the list.
# Target: T1, OsSMF1 (Oryza sativa, UniProt Q6ZLB0 1-436)
# T1 sequence: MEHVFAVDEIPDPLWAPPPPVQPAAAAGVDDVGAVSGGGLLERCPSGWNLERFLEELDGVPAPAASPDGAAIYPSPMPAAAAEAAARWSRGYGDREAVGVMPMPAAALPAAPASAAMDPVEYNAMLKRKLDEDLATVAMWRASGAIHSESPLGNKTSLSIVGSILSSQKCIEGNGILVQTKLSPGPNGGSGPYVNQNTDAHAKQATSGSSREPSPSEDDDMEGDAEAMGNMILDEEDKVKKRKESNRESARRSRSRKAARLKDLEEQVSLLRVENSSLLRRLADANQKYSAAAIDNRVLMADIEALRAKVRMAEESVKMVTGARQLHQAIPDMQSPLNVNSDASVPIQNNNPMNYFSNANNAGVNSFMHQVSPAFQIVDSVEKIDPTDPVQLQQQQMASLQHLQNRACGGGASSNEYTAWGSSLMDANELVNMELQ
# Assay: protein-binding microarray (RPBM); PBS, 2% BSA, 51.3 ng/ul salmon testes DNA, 50 uM zinc acetate, 200 nM TF, 25 C, 1 h; high values mean tight binding
# Settings: protein: recombinant; tags: N-terminal polyhistidine and DsRed monomer fusion (pET32a); chain copies: 2; label: CyDye5-dUTP incorporated in the synthesized complementary strand; 3' TTTTT single-stranded linker to array surface; dsDNA, one strand shown
# Procedure, shortened: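 Transcription factors were each fused at the N-terminus to a polyhistidine tag plus DsRed and expressed in E. coli BL21-CodonPlus before Ni–NTA purification. Binding to a double-stranded custom Agilent array was carried out with 200 nM protein at 25 °C for 1 h in PBS, 2% BSA, salmon testes DNA and 50 µM zinc acetate. The binding signal is per-feature fluorescence intensity, in arbitrary units, on an Axon 4000B scanner.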
row,Sequence,binding signal
1,GCTGGGGTGTCCATCACATGGACGTCAAGTCGGCATTTCTCGGAGTCACCTAGTGCAG,3590 fluorescence intensity (a.u.)
2,GGGCCGGTCTTCCATGCAGACGTGTACAAGTGCCTTGCACCGGAGTCACCTAGTGCAG,9030 fluorescence intensity (a.u.)
3,ATGCATGAGGTAGATGAGTGCGTATGTCACACAAATTAGGCGGAGTCACCTAGTGCAG,4330 fluorescence intensity (a.u.)
4,CATGAACGTCCGCCTACCGGAAGGGTACGTGATACGACCACGGAGTCACCTAGTGCAG,3420 fluorescence intensity (a.u.)
5,ATGTGTTTATAGCTTGCTTATAGTCTGTTGTTGTATCTGCCGGAGTCACCTAGTGCAG,8040 fluorescence intensity (a.u.)
6,GCACGTGATGCTGCATGTTCCGTGAACGTGTCAACTTTGTCGGAGTCACCTAGTGCAG,5890 fluorescence intensity (a.u.)
7,GCCGAGTCAGCATGGGTTTCAGTTAAGAACGCGCGAACTCCGGAGTCACCTAGTGCAG,30000 fluorescence intensity (a.u.)
8,ATTAACCATGTTAAATGTGTTTGCACACGAGACACGACTACGGAGTCACCTAGTGCAG,21700 fluorescence intensity (a.u.)
9,TGGGAGGCGTCAGGCCCCGGAATGTCACGTGAGCCTTCAACGGAGTCACCTAGTGCAG,3160 fluorescence intensity (a.u.)
10,GCACAGGCTTGACACCAGTCGAGCCGAGCCGAAACCCCGTCGGAGTCACCTAGTGCAG,3270 fluorescence intensity (a.u.)
11,GAAAGAAAAGAAAAGAAACTGAAAGCGTCACGTGCACGGTCGGAGTCACCTAGTGCAG,3860 fluorescence intensity (a.u.)
12,AGAATCTCACAGATGCAACTAGCAAAACGACTAACTGGTTCGGAGTCACCTAGTGCAG,6980 fluorescence intensity (a.u.)
13,CCATCTCCGACGAATGATGCTTTGACACTTAATGCTGCGTCGGAGTCACCTAGTGCAG,3350 fluorescence intensity (a.u.)
14,GTGTATGCACGTTTATAGGTGTGAGTGTATGTTGTAAGCGCGGAGTCACCTAGTGCAG,3670 fluorescence intensity (a.u.)
15,TGAATTGATCAAGTGCTAATAGAGTAGCAGGTCAATGCAACGGAGTCACCTAGTGCAG,3170 fluorescence intensity (a.u.)
16,TGAGCATGCTGACGAGCGCCGGAGTCGTGTACGAGGTGATCGGAGTCACCTAGTGCAG,4540 fluorescence intensity (a.u.)
17,AATAGCAGCCATCGCGGCCTTTATAAGCATCCACGCACGACGGAGTCACCTAGTGCAG,3250 fluorescence intensity (a.u.)
18,CAGTTCTTGTGTGTTTGTGTCCACCGAGTAAATACAAGTGCGGAGTCACCTAGTGCAG,3440 fluorescence intensity (a.u.)
19,GTGACTGATGAACATGATGTTGGATGTATGGGATGGCACGCGGAGTCACCTAGTGCAG,3740 fluorescence intensity (a.u.)
20,AAATGCTGTTTCAGTAGAGGCTGAAATTTATGTTGCTGATCGGAGTCACCTAGTGCAG,3670 fluorescence intensity (a.u.)
21,CGGGCGACGCCGGTGCTGGCGCCAGCGTGGGGCCGCGACGCGGAGTCACCTAGTGCAG,4780 fluorescence intensity (a.u.)

row,Sequence,binding signal
1,CGGTAGACATATTTGATGACATAATCCAAAGTAACTATATCGGAGTCACCTAGTGCAG,3690 fluorescence intensity (a.u.)
2,TCCCGGCCGTGACCAGCTCTGTCGTCACGCTCGTTGTCGTCGGAGTCACCTAGTGCAG,7650 fluorescence intensity (a.u.)
3,ACTTGGTTCAAGATGTGCCATGTGTGCCGTGTGTTGCCTTCGGAGTCACCTAGTGCAG,4140 fluorescence intensity (a.u.)
4,CCCGTGGCCGCGCCTCCGCCGGCGAATCCACGTCGCCGTCCGGAGTCACCTAGTGCAG,5270 fluorescence intensity (a.u.)
5,TGTTCCCCGCTACGTCAACTGTGAGATCTGATACGATGGACGGAGTCACCTAGTGCAG,8540 fluorescence intensity (a.u.)
6,CATAGCAACCACAACCGCCACCTCCTCTAACCAACCGAAGCGGAGTCACCTAGTGCAG,3430 fluorescence intensity (a.u.)
7,AGCCCAATTCGTTGTACCTCAATCAACTTGGAATAAGAACCGGAGTCACCTAGTGCAG,3180 fluorescence intensity (a.u.)
8,TTGCTGTGTCTTTGTATTTTGATTTCGCCTTAACGAGGGTCGGAGTCACCTAGTGCAG,32300 fluorescence intensity (a.u.)
9,AAACTAGCAGGCACAAATTAAGCAAATGATCCATCATCATCGGAGTCACCTAGTGCAG,3160 fluorescence intensity (a.u.)
10,GATAAGGCGCGTGGCACAGACCATTTTAATTTCCACATATCGGAGTCACCTAGTGCAG,4770 fluorescence intensity (a.u.)
11,GACCGGTCAACCCGATAAGGTGTGTATAAATACATGGCGCCGGAGTCACCTAGTGCAG,3190 fluorescence intensity (a.u.)
12,AAAATCATATACTTGTGCTGACGTCACGTCATCACTGCATCGGAGTCACCTAGTGCAG,20500 fluorescence intensity (a.u.)
13,CATGCATCCAAATGACACGACACACTTAGATTCTAATAGGCGGAGTCACCTAGTGCAG,5590 fluorescence intensity (a.u.)
14,CTAATAATTAATTGTTGTTGCATGAGAGCCAACACGTACGCGGAGTCACCTAGTGCAG,4220 fluorescence intensity (a.u.)
15,AGGACAACGCAGCTTGCTGGCTCAACCGCTCACGCACGTCCGGAGTCACCTAGTGCAG,10500 fluorescence intensity (a.u.)
16,AACACACTAGTAATACGAATCTGAATATGGTACTAGGATACGGAGTCACCTAGTGCAG,64200 fluorescence intensity (a.u.)
17,CGAAGGAAGATCTAGCCGTCCACGTGTCCCAGCGTGGCTGCGGAGTCACCTAGTGCAG,17000 fluorescence intensity (a.u.)
18,CCGGATGCATGCGCGTAGCGTATGTGACGGCATTACGGAACGGAGTCACCTAGTGCAG,3390 fluorescence intensity (a.u.)
19,GGCGCCAGCACCAGCAGCAGCGGCCCATCACCACGCGGACCGGAGTCACCTAGTGCAG,4580 fluorescence intensity (a.u.)
20,GTCCAGATTCGTTGTACTAGAATATGTCAGATCCAGTCCTCGGAGTCACCTAGTGCAG,3410 fluorescence intensity (a.u.)
21,AATGGAACACTCGTTCTTTATATAAAATGTCAGCAACAGTCGGAGTCACCTAGTGCAG,38400 fluorescence intensity (a.u.)

# A different layout for part of the listing above.
row	Sequence	binding signal
3	ACTTGGTTCAAGATGTGCCATGTGTGCCGTGTGTTGCCTTCGGAGTCACCTAGTGCAG	4140 fluorescence intensity (a.u.)
19	GGCGCCAGCACCAGCAGCAGCGGCCCATCACCACGCGGACCGGAGTCACCTAGTGCAG	4580 fluorescence intensity (a.u.)
21	AATGGAACACTCGTTCTTTATATAAAATGTCAGCAACAGTCGGAGTCACCTAGTGCAG	38400 fluorescence intensity (a.u.)
